This note sets out measurements from PubChem BioAssay AID330 (DTP/NCI, 2004).

The list shows only some results of the screen, not a fair sample: it is rich in T/C values a quarter to a half above the control, in often repeated tests (any T/C) and in doses without a T/C. Other doses and runs of a compound stand elsewhere. T/C gives the treated animals as a percentage of the vehicle group. Some entries give survivors of the animals treated and no T/C: the source holds a T/C of zero for them, seemingly a mark for toxic or unscored doses. Some survivor counts are full or nearly so, which does not show that the dose was tolerated: the source hardly ever lists a survival T/C far under the control, and the zero likely stands for such cases as well. Survivors were counted at the toxicity check, usually on the fifth day, unless a day is given; later deaths do not show. Schedule codes are those of the source, read here as Q, the interval in days (D) or hours (H), X, the number of doses. Counts like (3×) say how often a value occurs here. Some entries hold several experiments; the results are listed from low to high. For survival time, the PubChem record calls one and a half times the control and up active, and a quarter to a half above the control has no call in these data; cut-offs in other NCI protocols can differ. Some T/C values are followed by the survivors on the day toxicity was checked, most often the fifth; without a count, all were alive then.

For this assay, the system named is P388 leukemia ip, CD2F1 mice, survival T/C. Description: NCI In Vivo Anticancer Drug Screen. Data for tumor model P388 Leukemia (intraperitoneal) in CD2F1 (CDF1) mice. The conditions noted are these: T/C endpoint: median survival time, higher T/C = longer survival.
[1] abbreviates: dose: 25.0 mg/kg/injection, schedule: Q01DX009 (ip), vehicle: water.
Setting [2] is: dose: 240.0 mg/kg/injection, schedule: Q01DX005 (ip), vehicle: saline with Tween-80.

Regarding `CC1CC(C)CC(C)C(O)/C(C#N)=C/C=C/CC(C2CCCC2C(=O)O)OC(=O)CC(O)C(C)C1` (stereo not given), the T/C is 127 % of control (dose: 0.12 mg/kg/injection, schedule: Q01DX009 (ip), vehicle: saline with Tween-80); 140 % of control (2×) (dose: 0.25 mg/kg/injection, schedule: Q01DX009 (ip), vehicle: Klucel (hydroxypropylcellulose) (HPC)); 132 % of control (dose: 0.25 mg/kg/injection, schedule: Q01DX009 (ip), vehicle: saline with Tween-80); 142 % of control (dose: 0.5 mg/kg/injection, schedule: Q01DX009 (ip), vehicle: saline with Tween-80); 129 % of control (dose: 0.78 mg/kg/injection, schedule: Q01DX009 (ip), vehicle: Klucel (hydroxypropylcellulose) (HPC)); 145 % of control (2×) (dose: 1.0 mg/kg/injection, schedule: Q01DX009 (ip), vehicle: Klucel (hydroxypropylcellulose) (HPC)). In addition, the T/C runs as follows: (dose: 1.0 mg/kg/injection, schedule: Q01DX009 (ip), vehicle: saline with Tween-80) 142 % of control [5 of 6 alive]; (dose: 1.56 mg/kg/injection, schedule: Q01DX009 (ip), vehicle: Klucel (hydroxypropylcellulose) (HPC)) 147 % of control; (dose: 2.0 mg/kg/injection, schedule: Q01DX009 (ip), vehicle: saline with Tween-80) 142 % of control; (dose: 3.13 mg/kg/injection, schedule: Q01DX009 (ip), vehicle: Klucel (hydroxypropylcellulose) (HPC)) 136 % of control. Also, the survivor count (dose: 2.0 mg/kg/injection, schedule: Q01DX009 (ip), vehicle: Klucel (hydroxypropylcellulose) (HPC)) is listed as 3 of 6; the survivor count (dose: 4.0 mg/kg/injection, schedule: Q01DX009 (ip), vehicle: Klucel (hydroxypropylcellulose) (HPC)) is 0 of 6 and 1 of 6 (3×); the survivor count (dose: 6.25 mg/kg/injection, schedule: Q01DX009 (ip), vehicle: Klucel (hydroxypropylcellulose) (HPC)) is given as 0 of 6; the survivor count (dose: 8.0 mg/kg/injection, schedule: Q01DX009 (ip), vehicle: Klucel (hydroxypropylcellulose) (HPC)) is 1 of 6 (3×); the survivor count (dose: 12.5 mg/kg/injection, schedule: Q01DX009 (ip), vehicle: Klucel (hydroxypropylcellulose) (HPC)) was 0 of 6; the survivor count (dose: 25.0 mg/kg/injection, schedule: Q01DX009 (ip), vehicle: Klucel (hydroxypropylcellulose) (HPC)) is listed as 0 of 6.

Take `CS(=O)(=O)N/N=C/C(=O)O`: the T/C was 127 and 134 % of control under setting [1]; 126 % of control (dose: 50.0 mg/kg/injection, schedule: Q01DX009 (ip), vehicle: water). The survivor count is 3 of 6 and 4 of 6 (dose: 200.0 mg/kg/injection, schedule: Q01DX009 (ip), vehicle: water); 0 of 6 (dose: 400.0 mg/kg/injection, schedule: Q01DX009 (ip), vehicle: water).

For the molecule `OC(c1ccco1)c1nc2ccccc2s1` (stereo not given), the survivor count is 6 of 6 (dose: 120.0 mg/kg/injection, schedule: Q01DX005 (ip), vehicle: Klucel (hydroxypropylcellulose) (HPC)) and 6 of 6 (dose: 240.0 mg/kg/injection, schedule: Q01DX005 (ip), vehicle: Klucel (hydroxypropylcellulose) (HPC)).

As to `COc1cc(C2c3cc4c(cc3[C@@H](OC3OC5CO[C@@H](c6cccs6)OC5C(O)C3O)[C@H]3COC(=O)C23)OCO4)cc(OC)c1OC` (stereo not given in full), the T/C (dose: 4.0 mg/kg/injection, schedule: Q01DX005 (ip), vehicle: saline) is 140 % of control and the T/C (dose: 8.0 mg/kg/injection, schedule: Q01DX005 (ip), vehicle: saline) is 148 % of control [5 of 6 alive].

On to `COC(=O)C1(CC(=O)c2ccc(Cl)cc2Cl)NC(=S)NC(=O)C1C#N` (stereo not given), for which the survivor count under setting [2] is 5 of 6.

As for `O=C(O)C1CCCCC1c1c2ccc(=O)c(O)c-2oc2c(O)c(O)ccc12` (stereo not given), under setting [2], the survivor count is on record as 1 of 6.

Take `CCCCNC1C2CCC(C)(C1O)C2(C)C` (stereo not given): the survivor count reads like this: (dose: 100.0 mg/kg/injection, schedule: Q01DX005 (ip), vehicle: Klucel (hydroxypropylcellulose) (HPC)) 0 of 6; (dose: 200.0 mg/kg/injection, schedule: Q01DX005 (ip), vehicle: Klucel (hydroxypropylcellulose) (HPC)) 0 of 6.

For the molecule `N#CC1=CN=C2C=CC=C3N=C(C(Cl)(Cl)Cl)N=C1N32`, the survivor count by setting is: (dose: 60.0 mg/kg/injection, schedule: Q01DX005 (ip), vehicle: Klucel + Tween-80) 6 of 6; (dose: 120.0 mg/kg/injection, schedule: Q01DX005 (ip), vehicle: Klucel + Tween-80) 1 of 6; (dose: 240.0 mg/kg/injection, schedule: Q01DX005 (ip), vehicle: Klucel + Tween-80) 0 of 6.

In the case of `COc1cccc2c1C(=O)c1c(O)c3c(c(O)c1C2=O)CC(O)(C(C)NCCCO)CC3OC1CC(N)C(O)C(C)O1` (stereo not given), the T/C runs as follows: (dose: 3.0 mg/kg/injection, schedule: Q01DX009 (ip), vehicle: water) 126 % of control; (dose: 6.0 mg/kg/injection, schedule: Q01DX009 (ip), vehicle: water) 139 and 140 % of control; (dose: 12.0 mg/kg/injection, schedule: Q01DX009 (ip), vehicle: water) 149 % of control (2×).

Turning to `CCOC(=O)C(Cc1ccc(N(CCCl)CCCl)cc1)NC(=O)C(NC(C)=O)C(C)C` (stereo not given), the T/C (dose: 10.0 mg/kg/injection, schedule: Q04DX003 (ip), vehicle: water) is 126 % of control.

With `CN(C)C(=S)S(=O)(=O)c1ccc(Cl)cc1`, the survivor count was 6 of 6 (dose: 50.0 mg/kg/injection, schedule: Q01DX009 (ip), vehicle: saline with Tween-80); 2 of 6 (dose: 100.0 mg/kg/injection, schedule: Q01DX009 (ip), vehicle: saline with Tween-80); 0 of 6 and 3 of 6 (dose: 100.0 mg/kg/injection, schedule: Q04DX002 (ip), vehicle: Klucel (hydroxypropylcellulose) (HPC)); 0 of 6 (dose: 200.0 mg/kg/injection, schedule: Q01DX009 (ip), vehicle: saline with Tween-80); 0 of 6 (dose: 200.0 mg/kg/injection, schedule: Q04DX002 (ip), vehicle: Klucel (hydroxypropylcellulose) (HPC)); 0 of 6 (dose: 400.0 mg/kg/injection, schedule: Q04DX002 (ip), vehicle: Klucel (hydroxypropylcellulose) (HPC)).

With `COc1cccc2c1C(=O)c1c(O)c3c(c(O)c1C2=O)CC(O)(/C(CO)=N/NC(=O)CCC(=O)N/N=C(\CO)C1(O)Cc2c(O)c4c(c(O)c2C(OC2CC(N)C(O)C(C)O2)C1)C(=O)c1c(OC)cccc1C4=O)CC3OC1CC(N)C(O)C(C)O1` (stereo not given), the T/C runs as follows: (dose: 0.2 mg/kg/injection, schedule: Q01DX009 (ip), vehicle: water) 127 % of control; (dose: 0.39 mg/kg/injection, schedule: Q01DX009 (ip), vehicle: water) 148 % of control; (dose: 0.78 mg/kg/injection, schedule: Q01DX009 (ip), vehicle: water) 148 % of control; (dose: 4.7 mg/kg/injection, schedule: Q04DX003 (ip), vehicle: water) 131 % of control; (dose: 18.8 mg/kg/injection, schedule: Q04DX003 (ip), vehicle: water) 140 % of control; (dose: 37.5 mg/kg/injection, schedule: Q04DX003 (ip), vehicle: water) 133 % of control. For the same molecule, the survivor count under setting [1] is reported as 6 of 6.

`COc1c2ccoc2cc2oc(COC3OC(CO)C(O)C(O)C3O)cc(=O)c12` (stereo not given): the survivor count (dose: 100.0 mg/kg/injection, schedule: Q01DX005 (ip), vehicle: saline) is on record as 0 of 6 and the survivor count (dose: 200.0 mg/kg/injection, schedule: Q01DX005 (ip), vehicle: saline) was 0 of 6.

As for `CCCCCCC(=O)/C=C/c1ccccc1OCOC`, where the note is “dose: 200.0 mg/kg/injection, schedule: Q01DX009 (ip), vehicle: Klucel (hydroxypropylcellulose) (HPC)”, the T/C was 129 % of control.

`Cc1ccc(S(=O)(=O)c2ccc(Sc3cccc[n+]3[O-])c3nonc23)cc1`: the T/C (dose: 50.0 mg/kg/injection, schedule: Q01DX009 (ip), vehicle: suspension in saline) was 130 % of control and the T/C (dose: 100.0 mg/kg/injection, schedule: Q01DX009 (ip), vehicle: suspension in saline) was 134 % of control [5 of 6 alive].

In the case of `COC(=O)c1nc(=S)[nH]c(C(=O)OC)c1C(=O)c1ccc(O)cc1O`, the survivor count under setting [2] is 2 of 6.

On to `CC(C)=CCc1ccc2c(c1)CCCN2C`, for which the survivor count (dose: 400.0 mg/kg/injection, schedule: Q04DX002 (ip), vehicle: saline with Tween-80) is listed as 0 of 6.
